Data: the supplement of paper PMC12578635
± gives the standard deviation of the averaged measurements. The list shows a part of the results. Most values come without repeats; read them as rough.

Tested on: RAW 264.7 macrophages infected with S. aureus JE2-lux
Experiment: host macrophage viability (CellTiter-Fluor) relative to DMSO vehicle; higher = more viable host cells
Details: 10 µM; treatment time 4 h; gentamicin 50 µg/ml

| SMILES | host macrophage viability [%] |
| --- | --- |
| COc1ccc(S(=O)(=O)c2cn(CC(=O)Nc3cc(C)ccc3C)c3ccccc3c2=O)cc1 | 123 |
| CC(C)=CCSc1nc2sc3c(c2c(=O)[nH]1)CCCC3 | 104 |
| CCOc1ccccc1CNC(=O)c1c(-c2ccccc2)nnc2ccc(C)cc12 | 112 |
| Cc1nn(-c2ccccc2)c2c1C(c1ccc([N+](=O)[O-])cc1)C(C#N)=C(N)O2 (centres undefined) | 116 |
| Cn1cccc1-c1cc2n(n1)CCC(=O)N2CC(=O)NCc1cccnc1 | 118 |
| Cc1oc(-c2ccno2)cc1S(=O)(=O)NCc1ccc(Cl)cc1 | 118 |
| COCCNc1ncnc2c1c(C)c(C)n2-c1ccc(F)c(F)c1 | 112 |
| COc1ccc(-c2ccc(=O)n(CCNC(=O)COc3ccccc3)n2)cc1 | 116 |
| CC(C)CCN1C(=O)CCc2cc(NS(=O)(=O)c3ccc(F)c(Cl)c3)ccc21 | 115 |
| O=C(CC1Sc2ccc(C(F)(F)F)cc2NC1=O)Nc1ccc(OC(F)F)cc1 (centres undefined) | 116 |
| CCOCCCNC(=O)Cc1csc2nc(-c3ccc(F)cc3)cn12 | 118 |
| O=C(NCCCSc1nc2ccccc2s1)Nc1ncccn1 | 102 |
| CCCn1/c(=N/C(=O)c2c(F)cccc2F)sc2cc(S(C)(=O)=O)ccc21 | 113 |
| CC(=O)Nc1ccc(S(=O)(=O)Nc2ccc(-c3cn4ccc(C)nc4n3)cc2)cc1 | 140 |
| CCCCCC(=O)n1nc(-c2ccc(Cl)cc2)nc1N | 118 |
| Cc1n[nH]c2c1C(c1ccc(OCc3ccccc3)cc1)C(C#N)=C(N)O2 (centres undefined) | 127 |
| CCOc1cc(/C=N/Nc2ncnc3[nH]cnc23)ccc1O | 118 |
| Cc1ccc(S(=O)(=O)N2CCCc3ccc(NS(=O)(=O)c4ccc(F)cc4C)cc32)cc1 | 101 |
| C=CCc1cccc2cc(C(N)=O)/c(=N\Cc3ccccc3)oc12 | 117 |
| Cc1ccc(-c2noc(CCC(=O)Nc3ccc(CCc4nc5cc(C)ccc5[nH]4)cc3)n2)cc1 | 78.3 |
| CCOC(=O)COc1ccccc1C1CC(c2ccccc2)=NN1C(=O)c1cccs1 (centres undefined) | 108 |
| CC(C)c1ccc2nc3sc(C(=O)NCC4CCCO4)c(N)c3cc2c1 (centres undefined) | 97.2 |
| Cn1c(NC(=O)/C=C\c2ccccc2)cc(=O)n(C)c1=O | 122 |

Four of the compounds above, bar-delimited.
SMILES | host macrophage viability [%]
COc1ccc(S(=O)(=O)c2cn(CC(=O)Nc3cc(C)ccc3C)c3ccccc3c2=O)cc1 | 123
Cc1oc(-c2ccno2)cc1S(=O)(=O)NCc1ccc(Cl)cc1 | 118
CC(C)CCN1C(=O)CCc2cc(NS(=O)(=O)c3ccc(F)c(Cl)c3)ccc21 | 115
Cn1c(NC(=O)/C=C\c2ccccc2)cc(=O)n(C)c1=O | 122

(continued)

| SMILES | host macrophage viability [%] |
| --- | --- |
| CCCc1cc(CNC(=O)c2c(-c3ccncc3)noc2C)on1 | 114 |
| Cc1ccc(-n2c(=O)c3cccnc3n2CC(=O)N2CCCCC2C)cc1 (centres undefined) | 97.1 |
| COc1ccc2c(c1OC)C(=O)OC2Nc1cccc(F)c1 (centres undefined) | 120 |
| CCN1CCN(CC(=O)NC2CCCC2)C(=O)C1=O | 111 |
| Cc1ccccc1-n1c(C)c(C)c2c1ncn1nc(-c3ccccc3O)nc21 | 122 |
| Cn1c(=O)c2c(nc(S)n2Cc2ccc(F)cc2)n(C)c1=O | 107 ± 12 |
| CCN1CCN(c2nc3ncn(CC(=O)NCc4ccccc4Cl)c(=O)c3s2)CC1 | 121 |
| O=C(CSc1nnc2c(n1)-c1cccc3cccc-2c13)Nc1cc(Cl)ccc1Cl | 120 |
| CCc1nc(SCC(=O)NCC2CCCO2)c2c(=O)n(C)c(=O)n(C)c2n1 (centres undefined) | 116 |
| C=CCOc1ccccc1NC(=O)c1ccnc2ccc(Cl)cc12 | 121 |
| CCn1nc(C)c(CCNC(=O)c2cc3c(=O)n(CCOC)ccc3nc2C)c1C | 119 |
| CN1C(=O)N(C(=O)c2ccc(F)cc2F)c2cccnc2N1C | 115 |
| Nn1c(SCc2cccc(Cl)c2)nncc1=O | 109 |
| CCOc1ccccc1Nc1nc(C)nc2c1c(C)c(C)n2-c1ccccc1 | 107 |
| O=C(Nc1cccnc1)C(=O)Nc1cccc2ccccc12 | 102 |
| Cc1ccc(-n2nnc3c(SCC(=O)Nc4ccc(C)c(Cl)c4)ncnc32)cc1 | 104 ± 5.3 |
| COc1ccc(CNC(=O)c2cnc3cc4c(cc3c2O)OCCO4)cc1 | 113 |
| Cc1ccc(CNC(=O)C(C)C2CCN(C(=O)c3cc4ccccc4[nH]3)CC2)cc1 (centres undefined) | 95.6 |
| CC/N=C1\S/C(=C2\C(=O)Nc3ccccc32)C(=O)N1CC | 114 |
| CC(=O)Nc1cc(-c2noc(-c3ccsc3)n2)ccc1-n1ccnc1 | 82.5 |
| COc1ccccc1-c1cc(C(=O)NCc2ccccc2)c2c(-c3ccccc3)[nH]nc2n1 | 126 |
| COc1ccccc1N1CCN(C(=O)Cn2cnc3onc(-c4ccc(C)cc4)c3c2=O)CC1 | 125 |
| Cc1c(C)n(Cc2ccccc2)c2ncn3nc(-c4ccc(Cl)cc4)nc3c12 | 123 |

| SMILES | host macrophage viability [%] |
| --- | --- |
| COc1cccc(Nc2nc(N)nc(CN3CCc4ccccc4C3)n2)c1 | 81.4 |
| COc1ccc(OC)c2sc(N(Cc3cccnc3)C(=O)C3COc4ccccc4O3)nc12 (centres undefined) | 114 |
| CCn1c(=O)[nH]c(=O)c2cnc(-c3ccc(Cl)cc3)nc21 | 112 |
| O=C(Nc1nc2c(F)cc(F)cc2s1)c1ccc2ccccc2c1 | 123 |
| COC(=O)C(Cc1ccc(O)cc1)NC(=O)CCOc1ccc(OC)cc1 (centres undefined) | 125 |
| COc1ccc2cc(CCNC(=O)CCC3CCCC3)c(=O)[nH]c2c1 | 118 |
| COc1ccc(-n2c(N)cc(=O)nc2SCC(=O)N2CCCc3ccccc32)cc1 | 113 |
| COc1ccc(-c2nnc3c(C(=O)N4CCC(O)(c5ccc(Cl)cc5)CC4)cccn23)cc1 | 122 |
| Cn1cnc2c(C(=O)O)nn(-c3ccccc3)c2c1=O | 92.9 |
| Cc1ccc(C)c(NC(=O)c2cccnc2-c2ccsc2)c1 | 84.6 |
| O=Cc1ccc(OC(=O)CC2SC(=O)NC2=O)cc1 (centres undefined) | 111 |
| O=C(Nc1ccc2oc(-c3ccccc3F)cc(=O)c2c1)c1ccncc1 | 110 |
| Cn1c(SCC(=O)NCCCN2CCOCC2)nc2ccccc2c1=O | 124 |
| COC(=O)c1c(NC(=O)CC2NCCNC2=O)sc2c1CCCC2 (centres undefined) | 127 |
| O=C(COc1ncnc2ccccc12)NC(c1ccccc1)c1cccnc1 (centres undefined) | 125 |
| CCOc1ccc(NC(=O)c2cnc3c(c(C)nn3-c3ccccc3)c2Cl)cc1 | 109 |
| O=C(Nc1cc(Cl)cc(Cl)c1)c1ccc(N2C(=O)CCC2=O)cc1 | 117 |
| O=C(NCCn1cccn1)c1ncoc1-c1ccc(F)cc1 | 121 |
| CCc1nc(-n2nc(C)cc2N)c2c3c(sc2n1)CCC3 | 95.4 |
| Cc1ccccc1C(=O)/C(C#N)=C1\Nc2ccccc2N1C | 112 |
| CCOC(=O)CCn1c(=O)c2c(nc3n(CCCOC)c(C)c(C)n23)n(C)c1=O | 120 |
| Cc1sc2nc(C)n3c(=O)n(CC(=O)N4CCOCC4)nc3c2c1C | 98.5 |
| COCCCn1c(SCC(=O)Nc2ccccc2C(=O)OC)nc2c(sc3ccccc32)c1=O | 112 |

Sorted by length of the SMILES (smallest number first): 3 of the compounds above.

| SMILES | host macrophage viability [%] |
| --- | --- |
| COC(=O)c1c(NC(=O)CC2NCCNC2=O)sc2c1CCCC2 (centres undefined) | 127 |
| O=C(Nc1cc(Cl)cc(Cl)c1)c1ccc(N2C(=O)CCC2=O)cc1 | 117 |
| COCCCn1c(SCC(=O)Nc2ccccc2C(=O)OC)nc2c(sc3ccccc32)c1=O | 112 |
